# Laboratory results published in PubChem BioAssay AID624297 (National Center for Advancing Translational Sciences (NCATS), 2012).
# Hit rate of the full screen: of about 340,000 compounds, about 6,200 (1.8%) were called active. The shares of active, inactive and inconclusive entries below differ from those in the screen. Calls follow the shape of the dose curve; as a rule, active = well fitted activation curve with a large enough effect; inconclusive = small, poorly fitted or top-dose-only effect; inactive = no such curve, though single readings can be large or run the other way. Potencies beside an inconclusive call are fits to weak or partial responses and may not hold up.
# Assay: A quantitative high throughput screen for small molecules that induce DNA re-replication in SW480 colon adenocarcinoma cells. Also: nearly all actives have a fitted effect of over 55% in size. As to re-replication activation: % of control where 0% means no effect.
# Conditions: Hoechst DNA content imaging, 48 h; re-replication activation: at 46.1 µM (top of the series) unless noted
# Procedure, shortened: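 DNA re-replication was detected as more nuclei of elevated Hoechst intensity after 48 hr exposure to compound (23 nL pinned per well of 250 cells).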
# Potency is read from the fitted curve at half-maximal effect.
SMILES,Potency,re-replication activation
COc1cc(N)c(Cl)cc1C(=O)OCC(=O)NCC1CCCCC1,inactive,–
CC(=O)c1cccc(NC(=S)NC(=O)c2ccccc2C)c1,inactive,–
C=C(C)COc1ccc(-c2n[nH]c(C)c2-c2ccc(OC)cc2)c(O)c1,"inconclusive: 20.6 µM [activator, partial curve, poor fit]",–
Cc1ccc(S(=O)(=O)N(C)c2ccc3sc(C)nc3c2)cc1,"inconclusive: 18.4 µM [activator, single point]",–
Cc1ccc(S(=O)(=O)N2C[C@@H]3CCCC[C@@H]3[C@@H](C)[C@H]2c2cn(Cc3ccccc3)c3ncccc23)cc1,–,inactive: 25% [at 9.22 µM]
O=C(COC(=O)c1cc(S(=O)(=O)N2CCOCC2)ccc1F)NCCc1ccc(F)cc1,"inconclusive: 20.6 µM [activator, partial curve, poor fit]",–
O=C(CSc1cccc[n+]1[O-])c1ccc(Cl)s1,"inconclusive: 23.1 µM [activator, single point]",–
CCc1ccc(S(=O)(=O)N/N=C\c2ccc3c(c2)OCO3)cc1,inactive,–
CCC(C)N(CC(=O)Nc1cccc(C)c1C)C(=O)CCl (stereo unspecified),"inconclusive: 0.58 µM [activator, full curve]",–
O=C(NCC1OCCCN1S(=O)(=O)c1ccc(F)cc1)C(=O)NC1CCCC1 (stereo unspecified),"inconclusive: 14.6 µM [activator, partial curve, poor fit]",–
Cc1cc(C(=O)NC2CCCc3c2cnn3-c2cc(F)cc(F)c2)nn1C (stereo unspecified),inactive,–
CN1CCc2nc(NC(=O)c3cccc(S(=O)(=O)N4CCc5ccccc54)c3)sc2C1,inactive,–
COC(=O)/C(=C\c1cccnc1)NC(=O)c1ccc(OCc2ccccc2)cc1,"inconclusive: 23.1 µM [activator, single point]",–
N=C1C(=O)OCC1c1ccccc1NC(=O)CN1CCCCC1 (stereo unspecified),"inconclusive: 0.259 µM [activator, full curve, poor fit]",–
CCc1ccc(NC(=O)Cn2cc([N+](=O)[O-])nc2C)cc1,inactive,–
Cc1ccc2nc(-c3ccc(NC(=O)Cc4cccs4)cc3)[nH]c2c1,"inconclusive: 29.1 µM [activator, single point]",–
Cn1c(=O)[nH]c(=O)c2c1nc(N/N=C/C(Br)=C/c1ccccc1)n2CCO,"inconclusive: 23.1 µM [activator, single point]",–
O=C(Cc1ccccc1[N+](=O)[O-])N1CCOCC1,"inconclusive: 0.58 µM [activator, full curve, poor fit]",–
O=C(N/N=C/c1cccs1)c1cc(C2CC2)nc2ccccc12,active: 18.4 µM,–
C/C(=N\NC(=O)C12CCC(C)(C(=O)O1)C2(C)C)c1ccccc1O (stereo unspecified),active: 3.66 µM,–
NC(=O)OCC(O)COc1ccc(Cl)cc1 (stereo unspecified),inactive,–
COc1cc2c(cc1OC)[C@@H](Cc1ccc(OCCC#N)cc1)N(C)CC2,inactive,–
CC(/C=C/c1ccco1)=N\NC(=O)c1cccc(Cl)c1,"inconclusive: 16.4 µM [activator, partial curve, poor fit]",–

# Pulled by compound from the list above:
SMILES,Potency,re-replication activation
COc1cc2c(cc1OC)[C@@H](Cc1ccc(OCCC#N)cc1)N(C)CC2,inactive,–
O=C(Cc1ccccc1[N+](=O)[O-])N1CCOCC1,"inconclusive: 0.58 µM [activator, full curve, poor fit]",–
CC(=O)c1cccc(NC(=S)NC(=O)c2ccccc2C)c1,inactive,–
COc1cc(N)c(Cl)cc1C(=O)OCC(=O)NCC1CCCCC1,inactive,–

# Next structures.

SMILES,Potency,re-replication activation
O=C(N/N=C/c1c[nH]c2ccccc12)c1cc(-c2ccc3ccccc3c2)n[nH]1,active: 11.6 µM,–
Cc1ccc(-n2nnnc2-c2cccs2)cc1[N+](=O)[O-],inactive,–
Clc1nc(Cl)c2ncn(-c3ccccc3)c2n1,"inconclusive: 29.1 µM [activator, single point]",–
CN(CCC(=O)c1ccccc1)CCC(=O)c1ccccc1,"inconclusive: 20.6 µM [activator, single point]",–
CC(C)(C)c1ccccc1OCCOCCN1CCCCCC1,"inconclusive: 11.6 µM [activator, single point]",–
NNC(=O)c1cc(Br)cs1,"inconclusive: 29.1 µM [activator, partial curve, poor fit]",–
CC(=NNC(=O)c1ccncc1)c1ccccc1O,active: 0.58 µM,–
COc1ccccc1NC(=S)N(Cc1ccco1)Cc1cc2cc(C)c(C)cc2[nH]c1=O,active: 5.8 µM,–
O=c1c2ccccc2[nH]c(=S)n1CCCN1CCN(c2ccccc2)CC1,"inconclusive: 6.51 µM [activator, single point]",–
CCOc1cc([N+](=O)[O-])cc(/C=N/NC(=O)c2c(-c3ccccc3)noc2C)c1O,active: 8.2 µM,–
COc1ccc(C(=O)c2nc3c(n2O)CCCCC3)cc1,inactive,–
CCCCN(C(=O)c1ccc(C)o1)c1c(N)n(CC(C)C)c(=O)[nH]c1=O,inactive,–
COc1ccc(/C=C2\SC(=S)N(CC(=O)NC3CCS(=O)(=O)C3)C2=O)cc1 (stereo unspecified),"inconclusive: 0.231 µM [activator, full curve, poor fit]",–
O=C(C1CC(=O)N(c2ccc3c(c2)OCCO3)C1)N1CCN(Cc2ccccc2F)CC1 (stereo unspecified),inactive,–
COC(=O)c1ccccc1NC(=S)N(Cc1ccc2c(c1)OCO2)Cc1cc2ccc(OC)cc2[nH]c1=O,inactive,–
O=C(NCCCN1CCOCC1)c1cc(-c2ccc(Cl)s2)nc2ccccc12,"inconclusive: 16.4 µM [activator, single point]",–
C=CCNc1sc(C(=O)c2cccs2)c(N)c1C#N,"inconclusive: 29.1 µM [activator, single point]",–
CCCCn1c(CN2CCN(c3cccc(Cl)c3)CC2)nc2c1c(=O)[nH]c(=O)n2C,active: 5.8 µM,–
Cc1cc(NC(=O)c2cccs2)cc(-c2nc3ncccc3o2)c1O,"inconclusive: 32.6 µM [activator, partial curve, poor fit]",–
NC(=O)c1cc(N2C(=O)C=CC2=O)ccc1Cl,"inconclusive: 29.1 µM [activator, single point]",–
CC1CN(C(=O)Cn2cc(SCC(=O)N3CCOCC3)c3ccccc32)CC(C)O1 (stereo unspecified),"inconclusive: 20.6 µM [activator, single point]",–
O=C(NNC(=S)Nc1ccccc1)Nc1ccccc1,"inconclusive: 4.11 µM [activator, single point]",–
COc1ccccc1N1CCN(C2CCCN(S(=O)(=O)c3cccc(Cl)c3)C2)CC1 (stereo unspecified),"inconclusive: 25.9 µM [activator, partial curve, poor fit]",–
